Experimental data: paper PMC6471694
Results are given in words; binding and its absence hold for the method and conditions named. Binding seen in cells or lysates may run through a third protein. Some binding calls cover weakened binding; strength is not graded here.

Chains of the proteins cited; added tags and fusions are not shown.
UniProt Q8NDV7: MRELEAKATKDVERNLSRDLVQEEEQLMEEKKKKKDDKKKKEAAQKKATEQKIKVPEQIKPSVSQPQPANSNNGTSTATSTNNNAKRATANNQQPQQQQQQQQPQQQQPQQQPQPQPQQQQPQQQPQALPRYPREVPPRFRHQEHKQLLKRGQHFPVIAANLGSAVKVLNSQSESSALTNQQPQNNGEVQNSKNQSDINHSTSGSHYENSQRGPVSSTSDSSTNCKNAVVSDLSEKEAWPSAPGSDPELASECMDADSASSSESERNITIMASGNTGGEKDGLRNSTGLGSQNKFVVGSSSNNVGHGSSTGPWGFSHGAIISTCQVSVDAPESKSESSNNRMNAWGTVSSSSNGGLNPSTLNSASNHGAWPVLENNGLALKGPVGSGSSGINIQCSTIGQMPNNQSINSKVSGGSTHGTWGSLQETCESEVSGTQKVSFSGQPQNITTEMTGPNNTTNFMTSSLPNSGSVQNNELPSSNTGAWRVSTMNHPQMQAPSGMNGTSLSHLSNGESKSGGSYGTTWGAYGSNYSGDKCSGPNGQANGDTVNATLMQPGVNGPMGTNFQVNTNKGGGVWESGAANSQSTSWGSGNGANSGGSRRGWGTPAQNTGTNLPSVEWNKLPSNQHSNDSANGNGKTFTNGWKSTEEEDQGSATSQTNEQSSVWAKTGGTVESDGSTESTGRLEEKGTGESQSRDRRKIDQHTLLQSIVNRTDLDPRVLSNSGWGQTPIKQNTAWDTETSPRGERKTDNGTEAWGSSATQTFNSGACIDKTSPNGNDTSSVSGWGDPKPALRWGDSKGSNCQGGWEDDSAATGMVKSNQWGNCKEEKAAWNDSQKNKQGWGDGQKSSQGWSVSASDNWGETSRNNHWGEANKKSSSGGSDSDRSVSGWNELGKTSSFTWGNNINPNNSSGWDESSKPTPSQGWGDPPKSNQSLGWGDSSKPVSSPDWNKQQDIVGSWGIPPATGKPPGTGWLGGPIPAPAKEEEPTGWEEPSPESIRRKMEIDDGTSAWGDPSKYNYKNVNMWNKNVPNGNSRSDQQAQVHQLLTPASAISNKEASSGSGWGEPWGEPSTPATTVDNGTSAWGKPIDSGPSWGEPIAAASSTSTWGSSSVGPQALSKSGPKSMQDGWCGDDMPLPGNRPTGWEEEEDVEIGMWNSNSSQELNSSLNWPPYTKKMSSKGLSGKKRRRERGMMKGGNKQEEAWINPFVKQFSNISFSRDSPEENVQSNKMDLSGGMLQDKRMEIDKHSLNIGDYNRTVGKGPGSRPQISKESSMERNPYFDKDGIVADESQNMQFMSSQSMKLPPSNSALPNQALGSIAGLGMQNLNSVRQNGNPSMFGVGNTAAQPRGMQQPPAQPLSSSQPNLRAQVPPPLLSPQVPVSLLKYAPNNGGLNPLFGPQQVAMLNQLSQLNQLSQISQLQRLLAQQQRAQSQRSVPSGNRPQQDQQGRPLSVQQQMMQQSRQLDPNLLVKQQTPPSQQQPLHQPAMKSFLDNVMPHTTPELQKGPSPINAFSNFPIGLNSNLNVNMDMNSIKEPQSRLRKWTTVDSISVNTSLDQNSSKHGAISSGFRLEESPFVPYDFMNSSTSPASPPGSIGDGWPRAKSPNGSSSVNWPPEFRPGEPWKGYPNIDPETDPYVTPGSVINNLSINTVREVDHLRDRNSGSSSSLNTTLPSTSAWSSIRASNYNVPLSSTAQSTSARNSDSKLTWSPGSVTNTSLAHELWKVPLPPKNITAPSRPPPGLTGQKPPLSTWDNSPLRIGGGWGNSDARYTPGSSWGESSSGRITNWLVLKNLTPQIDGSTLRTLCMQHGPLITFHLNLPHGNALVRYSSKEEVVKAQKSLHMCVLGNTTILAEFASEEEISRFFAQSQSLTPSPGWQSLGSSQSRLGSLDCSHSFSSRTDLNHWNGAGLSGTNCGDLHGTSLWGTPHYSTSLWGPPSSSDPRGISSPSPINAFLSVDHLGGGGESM
UniProt Q9UKV8: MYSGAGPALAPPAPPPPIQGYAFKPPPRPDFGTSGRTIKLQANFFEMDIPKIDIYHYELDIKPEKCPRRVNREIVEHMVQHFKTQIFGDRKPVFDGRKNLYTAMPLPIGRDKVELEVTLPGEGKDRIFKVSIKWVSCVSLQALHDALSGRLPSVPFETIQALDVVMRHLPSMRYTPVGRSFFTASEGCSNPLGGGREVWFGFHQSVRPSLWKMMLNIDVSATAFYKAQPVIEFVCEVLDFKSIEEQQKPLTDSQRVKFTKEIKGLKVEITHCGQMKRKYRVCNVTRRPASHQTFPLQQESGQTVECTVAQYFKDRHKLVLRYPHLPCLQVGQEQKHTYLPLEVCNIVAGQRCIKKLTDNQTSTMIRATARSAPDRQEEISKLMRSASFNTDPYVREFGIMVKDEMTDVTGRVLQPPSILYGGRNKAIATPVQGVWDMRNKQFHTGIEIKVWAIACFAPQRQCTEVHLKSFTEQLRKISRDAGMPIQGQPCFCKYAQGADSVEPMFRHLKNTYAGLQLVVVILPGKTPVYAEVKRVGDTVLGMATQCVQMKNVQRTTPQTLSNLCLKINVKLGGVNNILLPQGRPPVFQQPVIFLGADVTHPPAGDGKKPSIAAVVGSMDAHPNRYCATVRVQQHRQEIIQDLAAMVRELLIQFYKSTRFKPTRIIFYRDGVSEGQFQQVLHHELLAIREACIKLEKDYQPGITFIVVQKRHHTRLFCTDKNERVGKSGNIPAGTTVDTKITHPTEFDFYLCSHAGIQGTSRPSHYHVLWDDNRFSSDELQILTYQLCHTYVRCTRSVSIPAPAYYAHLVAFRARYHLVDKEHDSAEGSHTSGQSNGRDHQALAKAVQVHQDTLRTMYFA

What was measured:
[1] = target: GW182/TNRC6A (human (endogenous in MCF-7)) (UniProt Q8NDV7); test: co-IP; endogenous proteins from precleared MCF-7 cytoplasmic lysate; anti-AGO2 or anti-GW182 armed protein A/G-agarose beads (15 ug Ab/mg lysate), overnight at 4 °C, three washes with ice cold wash buffer; Western blot of the IP fraction
[2] = target: AGO2 (human (endogenous in MCF-7)) (UniProt Q9UKV8); test: as above

binding [1] | binding [2] | Substance
binds |  | AGO2 (from UniProt Q9UKV8 1-859)
 | binds | GW182/TNRC6A (from UniProt Q8NDV7 1-1962)
